The campaign covered roughly 290,000 compounds. About 570 (0.2%) were called active. This list was built around the results that the source calls inconclusive (neither active nor inactive); the mix of calls is not that of the screen. Cut-off read from the data, not from the text of the source: active = inhibition mostly above about 51% (no sharp cut-off); inconclusive = no clear call, values can overlap the other calls; inactive = mostly below about 53%.
Molecular target: Voltage-dependent N-type calcium channel subunit alpha-1B (Homo sapiens) (UniProt Q00975)
Assay: disruptors of CaV2.2 binding to Mint1 – biochemical, HTRF (AID 2073)
Conditions: HTRF protein-protein interaction, Mint1-CaV2.2; at 20 µM; hits give high values

Sequences of proteins named here, by UniProt entry; tags and fusion partners are left off.
UniProt Q00975, whole entry, looked up: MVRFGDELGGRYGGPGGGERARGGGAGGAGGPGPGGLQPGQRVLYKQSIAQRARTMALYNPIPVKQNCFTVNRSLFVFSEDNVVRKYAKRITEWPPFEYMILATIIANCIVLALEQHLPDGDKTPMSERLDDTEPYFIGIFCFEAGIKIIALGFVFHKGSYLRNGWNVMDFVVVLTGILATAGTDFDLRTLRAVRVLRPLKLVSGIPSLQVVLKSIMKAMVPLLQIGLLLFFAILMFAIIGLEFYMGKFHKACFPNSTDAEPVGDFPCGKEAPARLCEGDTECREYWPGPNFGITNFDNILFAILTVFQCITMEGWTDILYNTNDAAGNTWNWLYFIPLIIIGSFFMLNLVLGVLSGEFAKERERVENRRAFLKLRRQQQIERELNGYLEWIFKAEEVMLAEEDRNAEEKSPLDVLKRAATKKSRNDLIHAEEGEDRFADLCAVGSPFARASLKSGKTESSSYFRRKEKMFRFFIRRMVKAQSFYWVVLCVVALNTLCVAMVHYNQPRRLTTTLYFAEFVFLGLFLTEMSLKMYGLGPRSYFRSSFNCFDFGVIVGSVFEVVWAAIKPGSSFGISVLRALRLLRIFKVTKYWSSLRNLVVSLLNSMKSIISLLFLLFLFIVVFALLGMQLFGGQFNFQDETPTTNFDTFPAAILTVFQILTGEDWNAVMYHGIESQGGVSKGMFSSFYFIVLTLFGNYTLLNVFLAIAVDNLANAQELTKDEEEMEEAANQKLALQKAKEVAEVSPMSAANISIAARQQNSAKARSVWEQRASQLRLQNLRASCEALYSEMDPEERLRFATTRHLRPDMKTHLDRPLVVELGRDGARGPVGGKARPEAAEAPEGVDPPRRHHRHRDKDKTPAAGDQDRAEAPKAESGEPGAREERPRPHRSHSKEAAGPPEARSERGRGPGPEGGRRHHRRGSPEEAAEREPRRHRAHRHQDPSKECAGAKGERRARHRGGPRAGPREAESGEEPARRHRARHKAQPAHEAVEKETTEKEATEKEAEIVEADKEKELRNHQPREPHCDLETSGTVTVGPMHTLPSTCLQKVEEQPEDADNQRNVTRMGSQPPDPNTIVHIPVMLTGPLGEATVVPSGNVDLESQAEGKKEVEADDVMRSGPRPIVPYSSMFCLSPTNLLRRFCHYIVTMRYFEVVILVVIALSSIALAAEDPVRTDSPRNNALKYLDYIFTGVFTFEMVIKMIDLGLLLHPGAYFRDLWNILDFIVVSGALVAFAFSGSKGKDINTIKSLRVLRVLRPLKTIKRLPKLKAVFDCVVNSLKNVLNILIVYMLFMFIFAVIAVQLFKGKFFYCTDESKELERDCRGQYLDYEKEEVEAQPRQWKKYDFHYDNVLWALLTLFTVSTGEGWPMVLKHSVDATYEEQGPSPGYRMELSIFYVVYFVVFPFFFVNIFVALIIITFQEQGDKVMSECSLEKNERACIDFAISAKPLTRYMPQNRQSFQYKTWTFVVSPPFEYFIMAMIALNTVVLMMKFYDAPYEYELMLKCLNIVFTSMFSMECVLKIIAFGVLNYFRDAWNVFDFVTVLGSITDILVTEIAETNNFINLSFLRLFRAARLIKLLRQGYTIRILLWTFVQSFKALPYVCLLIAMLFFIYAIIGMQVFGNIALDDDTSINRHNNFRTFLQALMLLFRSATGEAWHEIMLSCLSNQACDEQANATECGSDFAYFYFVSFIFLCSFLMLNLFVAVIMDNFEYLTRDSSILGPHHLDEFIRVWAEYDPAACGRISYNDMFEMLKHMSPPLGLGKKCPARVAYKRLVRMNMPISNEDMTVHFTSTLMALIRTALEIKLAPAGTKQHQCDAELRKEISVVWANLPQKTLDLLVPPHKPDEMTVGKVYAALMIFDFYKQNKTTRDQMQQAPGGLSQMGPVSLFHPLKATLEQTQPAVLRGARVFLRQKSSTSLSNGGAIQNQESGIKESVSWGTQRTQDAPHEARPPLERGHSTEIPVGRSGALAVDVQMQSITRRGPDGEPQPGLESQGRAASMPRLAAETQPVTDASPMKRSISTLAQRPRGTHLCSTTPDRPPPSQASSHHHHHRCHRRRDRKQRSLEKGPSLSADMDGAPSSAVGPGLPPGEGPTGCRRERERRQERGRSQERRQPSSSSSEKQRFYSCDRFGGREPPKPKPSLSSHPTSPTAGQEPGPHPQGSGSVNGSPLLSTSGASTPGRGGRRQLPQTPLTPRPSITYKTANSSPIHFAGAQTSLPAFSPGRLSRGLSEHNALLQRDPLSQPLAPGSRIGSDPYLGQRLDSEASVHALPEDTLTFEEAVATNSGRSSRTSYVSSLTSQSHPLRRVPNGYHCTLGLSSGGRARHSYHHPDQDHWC

inhibition, active:
O=C(Nc1ccc(S(=O)(=O)Nc2nccs2)cc1)c1ccc(N2C(=O)c3ccccc3C2=O)cc1 58.8%
C(=C\c1ccco1)/c1nc2ccccc2[nH]1 65.6%
COC(c1ccccc1)c1nnc(CCC(=O)NCc2ccc3ncccc3c2)o1 (configuration not stated) 50%

inhibition, inactive:
O=C(COc1ccccc1Cl)Nc1ccc(CN2CCOCC2)cc1 -4.3%
Cc1cccc(C=Nc2ccc3c4c(cccc24)CC3)c1O 7.8%
Cc1nc2ncccn2c1-c1csc(Nc2ccc(O)cc2)n1 25%
O=C(Nc1ccc2c(c1)nc1n2CCN(C2CCCCC2)C1)NC1CCCCC1 11.3%
COCC(=O)N(Cc1nc2sc(C)c(C)c2c(=O)[nH]1)C1CCCCC1 4.2%
Cc1cccc(C(=O)O)c1NC(=O)Cc1cccc2ccccc12 9.3%
CC[N+](CC)(CC#Cc1ccccc1)CC(=O)c1ccc(Cl)cc1 -0.1%
Cc1ccc(NS(=O)(=O)c2cc([N+](=O)[O-])ccc2N/N=C/c2sc(N3CCOCC3)nc2-c2ccccc2)c(C)c1 31.1%
CCn1ccnc1CN(C)C(=O)c1ccc(OC2CCN(CCc3ccccc3)CC2)cc1 6.5%
N#CC(C#N)=c1ccc2c(c1)N1C3=C(CCCC3)CC3CCCCC31N=2 (configuration not stated) -36.3%
NC(=O)COC(=O)c1cc(-c2ccco2)nc2ccccc12 14.1%
c1cnc(-c2noc(CN3CCN(C4C5CC6CC(C5)CC4C6)CC3)n2)cn1 (configuration not stated) -1.9%
COc1ccc(N2CC(C(=O)N/N=C/c3c[nH]c4ccccc34)CC2=O)cc1 (configuration not stated) 17.8%
COc1ccccc1C(=O)OCC(=O)NC1CCCC1 16.7%
Cc1ccc([N+](=O)[O-])cc1N 0%
CCc1ccc(C2CC(=O)N3CN(c4ccccc4)CSC3=C2C#N)cc1 (configuration not stated) 88%

An excerpt taken from the entries so far, as a working copy:
inhibition, inactive:
Cc1ccc(NS(=O)(=O)c2cc([N+](=O)[O-])ccc2N/N=C/c2sc(N3CCOCC3)nc2-c2ccccc2)c(C)c1 31.1%
CCn1ccnc1CN(C)C(=O)c1ccc(OC2CCN(CCc3ccccc3)CC2)cc1 6.5%

Following part.

inhibition, inconclusive:
COc1ccc(CC(=O)OCC(=O)Nc2c(C)n(C)n(-c3ccccc3)c2=O)cc1 64.9%
CCCCN(CC)CCCNC(=O)CN1C(=O)CSc2ccc(S(=O)(=O)N3CCOCC3)cc21 77.5%
CCN1C(=O)c2cccc3c(S(=O)(=O)NCc4ccccn4)ccc1c23 54.4%
CCOC(=O)c1cn(-c2c(Cl)cccc2Cl)c2cc(Cl)c([N+](=O)[O-])cc2c1=O 73.8%
O=c1cc(CN2CCN(c3cccc(Cl)c3)CC2)c2cc3c(cc2o1)CCCC3 60.1%
COc1cccc(CNC(=O)CCC(=O)N2CCSc3ccccc32)c1OC 64%
COC(=O)c1nn(-c2ccc(OC)cc2)c(=O)c2c(N)sc(C)c12 74.8%
O=C1/C(=C\c2ccccn2)SC(=S)N1c1ccc(S(=O)(=O)Nc2nccs2)cc1 80.7%
O=C(Nc1cccc(C(=O)Nc2cccc(Br)c2)c1)c1ccccc1 55.6%
CCN1C(=O)CC(NCc2ccc(S(N)(=O)=O)cc2)C1=O (configuration not stated) 67.9%
O=C(CSc1nnc2n(C3CCCC3)c(=O)c3ccccc3n12)N1CCCCCC1 52.9%
O=C(C1CC1)N1CCc2cc(S(=O)(=O)NCc3ccccc3)ccc21 76.1%
CCOC(=O)C1CCN(C(=O)c2cc3c(=O)n4ccccc4nc3n2C)CC1 57.1%
CC(=O)c1c(N2CCN(c3ccc(F)cc3)CC2)nc(=S)n(Cc2ccccc2)c1C 54.8%
Cc1cc(=O)oc(C)c1C(=O)Nc1ccccc1F 74.5%
COc1ccc(OC)c(/C=C/C(=O)N2C(=O)c3cccc(N)c3C2=O)c1 64.4%
O=C(O)C1C(C(=O)Nc2ccc(Cl)cc2)C2C=CC1C21CC1 (configuration not stated) 52.1%
CC1CN(CC(O)COCc2ccc3c(c2)OCO3)CC(C)O1 (configuration not stated) 80.8%
CCC/C(O)=C1\C(=O)CC(C)(C)CC1=Nc1ccc(OC)cc1OC 79.4%
COc1ccc(OCC(=O)NCCc2ccc(S(N)(=O)=O)cc2)cc1 52%
O=C(CNC(=O)c1ccccc1C(=O)O)c1ccccc1 63.5%
COc1cc(O)c(C(CCN2CCCC2)c2cc(OC)c(OC)c(OC)c2)c(OC)c1 (configuration not stated) 92.6%
COc1ccc2nc(/C(C#N)=C\c3ccc(C(=O)O)cc3)[nH]c2c1 62.1%
COC(=O)C1=C(C)N(CCc2ccc(OC)c(OC)c2)C(=O)C1 61.6%
CCn1c(=S)sc2c(=O)n(CC(=O)Nc3ccccc3C(F)(F)F)c(C)nc21 71%
O=C(c1ccco1)N1CCN=C1SCc1c(F)cccc1Cl 77.8%
CCN(C(=S)NC(=O)C1CC1)c1ccccc1 56.2%
CCN(CC)C(=O)CSc1n[nH]c(=S)n1N 57%
C=CCn1c(=O)c(C(C)=O)cn(N(C)c2ncc(C(F)(F)F)cc2Cl)c1=O 84.6%
Cc1cc(-c2ccc([N+](=O)[O-])cc2)nc2ccccc12 69.3%
O=C(NCCC1=CCCCC1)C1CCN(S(=O)(=O)c2cccc3nonc23)CC1 84.3%
CC1CCCN(c2nc3c(c(=O)[nH]c(=O)n3C)n2Cc2ccccc2Cl)C1 (configuration not stated) 61.2%
CC(=O)C1=C(O)C(=O)N(c2ccc(O)cc2)C1c1ccc(F)cc1 (configuration not stated) 64.5%
CC1Cc2ccccc2N1S(=O)(=O)c1ccc(Cl)nc1 (configuration not stated) 67.6%
CC1NC(C)(C)Cc2c1ccc1ccccc21 (configuration not stated) 78.8%
Cc1cc(NC(=O)c2cccs2)n(-c2ccccc2)n1 61.9%
Cc1cccc(-n2ncc3c2CCCC3NC(=O)CCCN2CCCCC2=O)c1C (configuration not stated) 94.1%
Cc1cc(C(=O)COC(=O)/C=C/c2cccc(F)c2)c(C)n1C 54.2%

From PubChem BioAssay AID2073 (Sanford-Burnham Center for Chemical Genomics, 2009)
